Results published in doi:10.1101/2025.02.22.639565.
Results are given in words; binding and its absence hold for the method and conditions named. Binding seen in cells or lysates may run through a third protein. Some binding calls cover weakened binding; strength is not graded here.

Sequences of proteins named here, by UniProt entry; tags and fusion partners are left off.
UniProt P50750: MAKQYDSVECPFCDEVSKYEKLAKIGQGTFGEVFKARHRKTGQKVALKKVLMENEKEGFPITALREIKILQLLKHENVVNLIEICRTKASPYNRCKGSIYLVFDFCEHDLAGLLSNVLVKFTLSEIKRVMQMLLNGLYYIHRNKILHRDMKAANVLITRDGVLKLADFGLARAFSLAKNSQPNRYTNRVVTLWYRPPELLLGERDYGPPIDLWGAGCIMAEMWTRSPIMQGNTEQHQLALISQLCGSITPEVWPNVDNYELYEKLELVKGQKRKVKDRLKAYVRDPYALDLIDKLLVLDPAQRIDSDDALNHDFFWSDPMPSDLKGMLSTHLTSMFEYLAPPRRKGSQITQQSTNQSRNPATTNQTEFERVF
UniProt P46937: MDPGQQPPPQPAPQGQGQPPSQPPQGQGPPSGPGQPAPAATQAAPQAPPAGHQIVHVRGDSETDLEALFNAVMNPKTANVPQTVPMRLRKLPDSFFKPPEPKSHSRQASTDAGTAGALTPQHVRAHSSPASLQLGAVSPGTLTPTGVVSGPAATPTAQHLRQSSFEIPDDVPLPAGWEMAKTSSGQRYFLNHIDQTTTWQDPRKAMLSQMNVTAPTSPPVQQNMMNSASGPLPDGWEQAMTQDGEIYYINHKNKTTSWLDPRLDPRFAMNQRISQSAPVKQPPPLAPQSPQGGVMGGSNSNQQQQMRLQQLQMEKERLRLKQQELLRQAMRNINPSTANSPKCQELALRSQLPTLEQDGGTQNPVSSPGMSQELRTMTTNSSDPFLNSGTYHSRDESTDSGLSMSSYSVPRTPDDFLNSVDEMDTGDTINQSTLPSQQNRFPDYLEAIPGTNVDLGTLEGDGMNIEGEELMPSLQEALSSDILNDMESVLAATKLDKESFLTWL

Target: CDK9 (cyclin-dependent kinase 9) (human (endogenous in GA0518)) (UniProt P50750)
Assay: co-IP

binding: binds
Substance: YAP1 (Yes-associated protein) (from UniProt P46937 1-504)
